Data from the supplement of paper PMC10331698.
± gives the standard deviation of the averaged measurements. Most entries show no effect beyond the scatter of the controls.

What was measured:
Assay in all cases: level (log10 ratio to DMSO vehicle control); higher = higher biomarker level / cell amount than vehicle control
[1] = compound: CC(C)(C)C(=O)CC(=O)C(F)(F)C(F)(F)C(F)(F)F [(Heptafluorobutanoyl)pivaloylmethane]; details: 2200 nM; in DMSO
Description: (§1)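 BioMAP Diversity Plus panel of 12 human primary cell co-culture systems (3C, 4H, LPS, SAg, BT, BF4T, BE3C, CASM3C, HDF3CGF, KF3CT, MyoF, Mphg). Compounds were added 1 h before stimulation and left for 24 h (MyoF 48 h; BT 72 h for soluble read-outs or 6 d for IgG). Biomarkers were read by ELISA, cytotoxicity by SRB, PBMC viability and proliferation by Alamar Blue. Each well value was divided by the mean of 8 DMSO control wells on the same plate and log10 transformed; duplicate blinded samples were tested at 4 concentrations.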

[2] = compound: FC(F)(F)C(F)(F)C(F)(F)C(F)(F)C(F)(F)C(F)(F)CC1CO1 [3-(Perfluorohexyl)-1,2-epoxypropane]; details: 2200 nM; in DMSO
Description: as §1

[3] = compound: CCN(CCO)S(=O)(=O)C(F)(F)C(F)(F)C(F)(F)C(F)(F)C(F)(F)C(F)(F)C(F)(F)C(F)(F)F [N-Ethyl-N-(2-hydroxyethyl)perfluorooctanesulfonamide]; details: in DMSO
Description: as §1

[4] = compound: NC(=O)C(F)(F)C(F)(F)C(F)(F)F [Heptafluorobutyramide]; details: 2200 nM; in DMSO
Description: as §1

[5] = compound: CN(C(=O)C(F)(F)C(F)(F)C(F)(F)F)[Si](C)(C)C [N-Methyl-N-trimethylsilylheptafluorobutyramide]; details: 2200 nM; in DMSO
Description: as §1

[6] = compound: O=S(=O)(O)CCC(F)(F)C(F)(F)C(F)(F)C(F)(F)C(F)(F)C(F)(F)C(F)(F)C(F)(F)F [8:2 Fluorotelomer sulfonic acid]; details: in DMSO
Description: as §1

[7] = compound: O=C(O)C(F)(F)C(F)(F)C(F)(F)C(F)(F)C(F)(F)C(F)(F)F [Perfluoroheptanoic acid]; details: in DMSO
Description: as §1

[8] = compound: O=C(O)C(F)(F)C(F)(F)C(F)(F)OC(F)(F)F [Perfluoro(4-methoxybutanoic) acid]; details: 2200 nM; in DMSO
Description: as §1

[9] = compound: NCC(F)(F)C(F)(F)C(F)(F)C(F)(F)C(F)(F)C(F)(F)C(F)(F)F [1H,1H-Perfluorooctylamine]; details: 2200 nM; in DMSO
Description: as §1

[10] = compound: OCCC(F)(F)C(F)(F)C(F)(F)C(F)(F)C(F)(F)C(F)(F)F [6:2 Fluorotelomer alcohol]; details: 2200 nM; in DMSO
Description: as §1

[11] = compound: Cc1ccc(S(=O)(=O)OCC(F)(F)C(F)(F)C(F)(F)C(F)(F)C(F)(F)C(F)F)cc1 [1H,1H,7H-Perfluoroheptyl 4-methylbenzenesulfonate]; details: 2200 nM; in DMSO
Description: as §1

[12] = compound: O=C(O)C(F)(F)C(F)(F)C(F)(F)C(F)(F)C(F)(F)C(F)(F)C(F)(F)C(F)(F)C(F)(F)C(F)F [11-H-Perfluoroundecanoic acid]; details: 2200 nM; in DMSO
Description: as §1

[13] = compound: O=C(O)C(F)(F)C(F)(F)C(F)(F)C(F)(F)C(=O)O [Octafluoroadipic acid]; details: 2200 nM; in DMSO
Description: as §1

[14] = compound: CCCCCCCCC(F)(F)C(F)(F)C(F)(F)C(F)(F)C(F)(F)C(F)(F)F [1-(Perfluorohexyl)octane]; details: in DMSO
Description: as §1

[15] = compound: O=C(O)C(F)(F)C(F)(F)C(F)(F)C(F)(F)F [Perfluoropentanoic acid]; details: in DMSO
Description: as §1

[16] = compound: OCC(F)(F)C(F)(F)C(F)(F)F [1H,1H-Heptafluorobutanol]; details: 2200 nM; in DMSO
Description: as §1

Test System	level (log10) [1]	level (log10) [2]	level (log10) ([3]; 2200 nM)	level (log10) ([3]; 6700 nM)	level (log10) ([3]; 20000 nM)	level (log10) [4]	level (log10) [5]	level (log10) ([6]; 2200 nM)	level (log10) ([6]; 6700 nM)	level (log10) ([6]; 20000 nM)	level (log10) ([6]; 60000 nM)	level (log10) ([7]; 2200 nM)	level (log10) ([7]; 6700 nM)	level (log10) ([7]; 20000 nM)	level (log10) ([7]; 60000 nM)	level (log10) [8]	level (log10) [9]	level (log10) [10]	level (log10) [11]	level (log10) [12]	level (log10) [13]	level (log10) ([14]; 740 nM)	level (log10) ([14]; 2200 nM)	level (log10) ([15]; 2200 nM)	level (log10) ([15]; 6700 nM)	level (log10) ([15]; 20000 nM)	level (log10) ([15]; 60000 nM)	level (log10) [16]
HDF3CGF:Proliferation 72hr	0.002 ± 0.0014	-0.049 ± 0.09	-0.12 ± 0.13	-0.391 ± 0.079	-0.746 ± 0.094	-0.0355 ± 0.074	0.0305 ± 0.0078	-0.0405 ± 0.021	0.0275 ± 0.044	0.0785 ± 0.06	0.107 ± 0.0014	-0.078 ± 0.038	-0.054 ± 0.033	0.0515 ± 0.098	-0.018 ± 0.018	-0.049 ± 0.065	-0.021 ± 0.017	-0.0295 ± 0.0035	-0.048 ± 0.068	0.033 ± 0.075	0.0045 ± 0.044	-0.0455 ± 0.03	-0.043 ± 0.051	-0.009 ± 0.033	0.002 ± 0.041	0.0505 ± 0.11	0.022 ± 0.03	-0.019 ± 0.034
HDF3CGF:SRB	-0.028 ± 0.04	-0.0465 ± 0.044	-0.0565 ± 0.052	-0.127 ± 0.011	-0.153 ± 0.084	0.016 ± 0.034	0.022 ± 0.031	-0.032 ± 0.0071	-0.044 ± 0.064	-0.017 ± 0.1	0.168 ± 0.037	-0.0305 ± 0.018	-0.029 ± 0.016	0.0125 ± 0.064	-0.045 ± 0.052	-0.0005 ± 0.0064	0.004 ± 0.017	-0.027 ± 0.054	-0.0365 ± 0.026	0.0415 ± 0.026	0.0045 ± 0.0035	-0.009 ± 0.027	-0.014 ± 0.041	-0.0115 ± 0.0078	0.012 ± 0.011	0.01 ± 0.018	0.0125 ± 0.03	-0.0035 ± 0.063
HDF3CGF:TIMP-1	-0.019 ± 0.0042	0.018 ± 0.055	0.0425 ± 0.063	0.005 ± 0.081	-0.0605 ± 0.074	0.014 ± 0.059	0.003 ± 0.023	0.023 ± 0.055	0.0375 ± 0.0064	0.0435 ± 0.037	-0.0365 ± 0.077	-0.0165 ± 0.052	-0.0015 ± 0.00071	-0.0115 ± 0.0035	-0.0055 ± 0.035	0.009 ± 0.059	-0.0235 ± 0.044	0.0245 ± 0.032	0.0065 ± 0.064	-0.0465 ± 0.033	-0.004 ± 0.041	-0.0035 ± 0.061	-0.0075 ± 0.063	0.0135 ± 0.018	-0.0195 ± 0.0021	-0.032 ± 0.014	0.0115 ± 0.011	-0.0095 ± 0.013
HDF3CGF:TIMP-2	-0.005 ± 0.03	0 ± 0.0042	0.062 ± 0.042	0.136 ± 0.0057	0.108 ± 0.0071	-0.0055 ± 0.044	-0.01 ± 0.0028	0.0255 ± 0.061	-0.003 ± 0.016	-0.023 ± 0.016	-0.0475 ± 0.022	-0.0245 ± 0.011	-0.011 ± 0.018	-0.012 ± 0.017	0.014 ± 0.0085	-0.001 ± 0.034	-0.028 ± 0.037	0.0215 ± 0.0078	-0.049 ± 0.0028	-0.0735 ± 0.021	0.0025 ± 0.03	-0.0305 ± 0.063	0.005 ± 0.037	-0.003 ± 0.041	0.009 ± 0.024	-0.0155 ± 0.018	-0.0025 ± 0.011	-0.0045 ± 0.032
KF3CT:CCL2/MCP-1	0.015 ± 0.014	-0.01 ± 0.018	-0.0165 ± 0.029	-0.0205 ± 0.0078	-0.102 ± 0.019	0.0225 ± 0.03	0.018 ± 0.038	0.0005 ± 0.043	-0.0135 ± 0.005	-0.0585 ± 0.029	-0.0475 ± 0.011	-0.008 ± 0.037	0.0165 ± 0.021	0.033 ± 0.024	0.0255 ± 0.053	0.032 ± 0.041	0.0005 ± 0.043	-0.0035 ± 0.012	0.049 ± 0.076	0.016 ± 0.025	0.0335 ± 0.06	0.0275 ± 0.088	0.0045 ± 0.035	-0.0045 ± 0.019	0.002 ± 0.02	-0.025 ± 0.025	0.0215 ± 0.05	-0.0015 ± 0.018
KF3CT:CD54/ICAM-1	-0.011 ± 0.021	0.0225 ± 0.035	-0.0145 ± 0.018	0.0415 ± 0.0078	0.002 ± 0.0028	-0.0035 ± 0.022	-0.003 ± 0.013	-0.0165 ± 0.00071	-0.026 ± 0.02	-0.0495 ± 0.018	-0.0515 ± 0.005	0.0015 ± 0.0078	-0.023 ± 0.0042	-0.0085 ± 0.0035	-0.0315 ± 0.00071	-0.001 ± 0.023	-0.0165 ± 0.011	0.0095 ± 0.026	0 ± 0.033	-0.0235 ± 0.054	0.0005 ± 0.013	0.0025 ± 0.028	-0.016 ± 0.023	-0.0075 ± 0.039	0.004 ± 0.0057	0.001 ± 0.013	0.016 ± 0.028	0.0015 ± 0.0035
KF3CT:CXCL8/IL-8	-0.0045 ± 0.015	0.016 ± 0.013	0.01 ± 0.0085	-0.0975 ± 0.012	-0.0935 ± 0.0064	0.004 ± 0.016	0.006 ± 0.0042	0.0135 ± 0.043	0.016 ± 0.038	-0.03 ± 0.023	-0.131 ± 0.036	-0.004 ± 0.023	-0.0055 ± 0.0064	0.002	0.0105 ± 0.00071	0.0065 ± 0.005	0.0035 ± 0.0092	-0.0115 ± 0.011	0.0105 ± 0.023	0.002 ± 0.0099	0.0075 ± 0.0021	0.013 ± 0.024	0.012 ± 0.0028	-0.0155 ± 0.0092	-0.0025 ± 0.019	-0.0035 ± 0.005	0.016 ± 0.0071	-0.001 ± 0.016
KF3CT:CXCL9/MIG	0.0005 ± 0.005	0.0025 ± 0.0078	0.0055 ± 0.011	0.004 ± 0.0085	-0.032 ± 0.013	0.011 ± 0.0071	-0.006 ± 0.024	0.0015 ± 0.016	0.005 ± 0.017	0.003 ± 0.0099	0.01 ± 0.0057	0.007 ± 0.0014	-0.0085 ± 0.005	-0.0015 ± 0.0035	0.011 ± 0.013	0.016 ± 0.0071	0.001 ± 0.016	0.0075 ± 0.005	-0.0035 ± 0.023	-0.009 ± 0.0071	0.012 ± 0.0099	-0.0025 ± 0.015	-0.003 ± 0.0028	0.001 ± 0.011	-0.002 ± 0.0057	-0.0055 ± 0.0021	0.0085 ± 0.013	-0.0045 ± 0.0092
KF3CT:CXCL10/IP-10	0 ± 0.02	0.0345 ± 0.0092	-0.005 ± 0.0028	-0.0395 ± 0.022	-0.107 ± 0.015	0.005 ± 0.017	-0.003 ± 0.0099	-0.012	-0.015 ± 0.0028	-0.044 ± 0.0042	-0.0495 ± 0.00071	0.003 ± 0.028	-0.003 ± 0.018	0.0125 ± 0.026	0.0155 ± 0.023	0.0005 ± 0.016	0.001 ± 0.0057	0.0125 ± 0.0021	-0.0185 ± 0.013	-0.0045 ± 0.015	0.0085 ± 0.013	0.0005 ± 0.022	0.0035 ± 0.013	-0.006 ± 0.0042	0.002 ± 0.0042	-0.0085 ± 0.0035	0.0025 ± 0.016	0.0035 ± 0.0064

2 neighbouring entries already listed, for reference:
Test System	level (log10) [1]	level (log10) [2]	level (log10) ([3]; 2200 nM)	level (log10) ([3]; 6700 nM)	level (log10) ([3]; 20000 nM)	level (log10) [4]	level (log10) [5]	level (log10) ([6]; 2200 nM)	level (log10) ([6]; 6700 nM)	level (log10) ([6]; 20000 nM)	level (log10) ([6]; 60000 nM)	level (log10) ([7]; 2200 nM)	level (log10) ([7]; 6700 nM)	level (log10) ([7]; 20000 nM)	level (log10) ([7]; 60000 nM)	level (log10) [8]	level (log10) [9]	level (log10) [10]	level (log10) [11]	level (log10) [12]	level (log10) [13]	level (log10) ([14]; 740 nM)	level (log10) ([14]; 2200 nM)	level (log10) ([15]; 2200 nM)	level (log10) ([15]; 6700 nM)	level (log10) ([15]; 20000 nM)	level (log10) ([15]; 60000 nM)	level (log10) [16]
HDF3CGF:TIMP-1	-0.019 ± 0.0042	0.018 ± 0.055	0.0425 ± 0.063	0.005 ± 0.081	-0.0605 ± 0.074	0.014 ± 0.059	0.003 ± 0.023	0.023 ± 0.055	0.0375 ± 0.0064	0.0435 ± 0.037	-0.0365 ± 0.077	-0.0165 ± 0.052	-0.0015 ± 0.00071	-0.0115 ± 0.0035	-0.0055 ± 0.035	0.009 ± 0.059	-0.0235 ± 0.044	0.0245 ± 0.032	0.0065 ± 0.064	-0.0465 ± 0.033	-0.004 ± 0.041	-0.0035 ± 0.061	-0.0075 ± 0.063	0.0135 ± 0.018	-0.0195 ± 0.0021	-0.032 ± 0.014	0.0115 ± 0.011	-0.0095 ± 0.013
HDF3CGF:TIMP-2	-0.005 ± 0.03	0 ± 0.0042	0.062 ± 0.042	0.136 ± 0.0057	0.108 ± 0.0071	-0.0055 ± 0.044	-0.01 ± 0.0028	0.0255 ± 0.061	-0.003 ± 0.016	-0.023 ± 0.016	-0.0475 ± 0.022	-0.0245 ± 0.011	-0.011 ± 0.018	-0.012 ± 0.017	0.014 ± 0.0085	-0.001 ± 0.034	-0.028 ± 0.037	0.0215 ± 0.0078	-0.049 ± 0.0028	-0.0735 ± 0.021	0.0025 ± 0.03	-0.0305 ± 0.063	0.005 ± 0.037	-0.003 ± 0.041	0.009 ± 0.024	-0.0155 ± 0.018	-0.0025 ± 0.011	-0.0045 ± 0.032
